Our source for the survivor count and T/C values is PubChem BioAssay AID248 (DTP/NCI, 2004).

The assay concerns L1210 leukemia ip in BDF1 mice, survival T/C. The experiment in a line: NCI In Vivo Anticancer Drug Screen. Data for tumor model L1210 Leukemia (intraperitoneal) in B6D2F1 (BDF1) mice. To be noted: T/C endpoint: mean survival time, higher T/C = longer survival.
The mark [1] stands for this setting: dose: 200.0 mg/kg/injection, schedule: Q01DX009 (ip), vehicle: saline with Tween-80.
The mark [2] stands for this setting: dose: 400.0 mg/kg/injection, schedule: Q04DX003 (ip), vehicle: saline with Tween-80.
[3] abbreviates: dose: 400.0 mg/kg/injection, schedule: Q04DX003 (ip), vehicle: saline.
The mark [4] stands for this setting: dose: 400.0 mg/kg/injection, schedule: Q01DX009 (ip), vehicle: Klucel (hydroxypropylcellulose) (HPC).
The mark [5] stands for this setting: dose: 100.0 mg/kg/injection, schedule: Q01DX001 (ip), vehicle: saline.
The mark [6] stands for this setting: dose: 200.0 mg/kg/injection, schedule: Q01DX001 (ip), vehicle: saline.
The mark [7] stands for this setting: dose: 400.0 mg/kg/injection, schedule: Q01DX001 (ip), vehicle: saline.
Setting [8] is: dose: 300.0 mg/kg/injection, schedule: Q01DX001 (ip), vehicle: other.
The mark [9] stands for this setting: dose: 75.0 mg/kg/injection, schedule: Q01DX001 (ip), vehicle: other.
The mark [10] stands for this setting: dose: 150.0 mg/kg/injection, schedule: Q01DX001 (ip), vehicle: other.
The mark [11] stands for this setting: dose: 50.0 mg/kg/injection, schedule: Q01DX009 (ip), vehicle: saline.
The mark [12] stands for this setting: dose: 100.0 mg/kg/injection, schedule: Q01DX009 (ip), vehicle: saline.
[13] abbreviates: dose: 400.0 mg/kg/injection, schedule: Q01DX009 (ip), vehicle: saline with Tween-80.

The list does not hold the whole screen: it gathers tests that were run many times, whatever their T/C, doses with no T/C, and many T/C values between a quarter and a half above the control. Other doses and runs of a compound stand elsewhere. T/C: endpoint of the treated group in % of that of the vehicle group. Some entries give survivors of the animals treated and no T/C: the source files T/C as zero there, which appears to mark a toxic dose or a test without result, not a measured value. Some doses without a T/C left all or most animals alive at the check, yet need not have been tolerated: the source hardly ever lists a survival T/C far under the control, and the zero likely stands for such cases as well. Survivors were counted at the toxicity check, usually on the fifth day, unless a day is given; later deaths do not show. Schedule codes are those of the source, read here as Q, the interval in days (D) or hours (H), X, the number of doses. Some entries were tested several times; the results are listed from low to high. Some schedule codes hold Z or #, which are not explained here. For survival time, the PubChem record calls one and a half times the control and up active, and a quarter to a half above the control has no call in these data; cut-offs in other NCI protocols can differ. Some T/C values carry the count of animals alive at the toxicity check (mostly the fifth day); without a count, all were alive then.

Consider `CC1CCC2C(C1)N(C(C)C)OC2(C)C` (centres undefined), for which the survivor count under setting [1] is reported as 3 of 6 and the survivor count under setting [2] is recorded as 1 of 6.
For `O=C(O)c1ccccc1[N+](=O)[O-].[Ag]`, the survivor count is, setting by setting: (dose: 100.0 mg/kg/injection, schedule: Q04DX003 (ip), vehicle: saline with Tween-80) 5 of 6; (dose: 200.0 mg/kg/injection, schedule: Q04DX003 (ip), vehicle: saline with Tween-80) 2 of 6; under setting [2], 0 of 6.
With `COC(=O)N1C=Cc2ccccc2C1C#N` (centres undefined), the survivor count was 6 of 6 (dose: 200.0 mg/kg/injection, schedule: Q04DX003 (ip), vehicle: saline) and 3 of 6 under setting [3].
As for `O=[N+]([O-])c1ccc(N/N=C/c2ccc(N(CCO)CCO)cc2)c([N+](=O)[O-])c1`, the survivor count (dose: 100.0 mg/kg/injection, schedule: Q01DX001 (ip), vehicle: saline with Tween-80) is 5 of 6; the survivor count (dose: 200.0 mg/kg/injection, schedule: Q01DX001 (ip), vehicle: saline with Tween-80) is recorded as 6 of 6; the survivor count (dose: 400.0 mg/kg/injection, schedule: Q01DX001 (ip), vehicle: saline with Tween-80) is 6 of 6.
`CC(C)NCc1ccccc1`: the survivor count (dose: 400.0 mg/kg/injection, schedule: Q04DX002 (ip), vehicle: saline with Tween-80) is recorded as 0 of 3.
`COc1ccc(CNCCN2CC2)cc1`: the survivor count is 0 of 6 (dose: 100.0 mg/kg/injection, schedule: Q01DX009 (ip), vehicle: Klucel (hydroxypropylcellulose) (HPC)); 0 of 6 (dose: 200.0 mg/kg/injection, schedule: Q01DX009 (ip), vehicle: Klucel (hydroxypropylcellulose) (HPC)); 0 of 6 under setting [4].
As for `CN=C(NC)c1cccc(NC(=O)c2ccc(C(=O)Nc3cccc(C(=NC)NC)c3)c(N)c2)c1`, the survivor count (dose: 30.0 mg/kg/injection, schedule: Q01DX Z (ip), vehicle: water) is listed as 0 of 6.
`O=P(O)(O)/C=C/c1ccccc1`: the survivor count (dose: 400.0 mg/kg/injection, schedule: Q04DX003 (ip), vehicle: Klucel (hydroxypropylcellulose) (HPC)) is given as 4 of 6.
As to `CN=C(NC)c1cccc(NC(=O)c2ccc(C(=O)Nc3cccc(C(=NC)NC)c3)cc2)c1`, the survivor count is listed as 1 of 6 (dose: 15.0 mg/kg/injection, schedule: Q01DX Z (ip), vehicle: saline); 0 of 6 (dose: 30.0 mg/kg/injection, schedule: Q01DX Z (ip), vehicle: saline); 0 of 6 (dose: 60.0 mg/kg/injection, schedule: Q01DX Z (ip), vehicle: saline); 0 of 6 (dose: 120.0 mg/kg/injection, schedule: Q01DX Z (ip), vehicle: saline).
As for `O=C(O)Cc1ccccc1Cl`, the survivor count (dose: 400.0 mg/kg/injection, schedule: Q01DX009 (ip), vehicle: gum acacia) is on record as 3 of 6.
Regarding `CC([NH-])CO.CC([NH-])CO.[Cu+2]` (centres undefined), the survivor count (dose: 50.0 mg/kg/injection, schedule: Q01DX001 (ip), vehicle: saline) is 0 of 6; the survivor count under setting [5] is reported as 1 of 6; the survivor count under setting [6] is recorded as 0 of 6; the survivor count under setting [7] is 1 of 6.
As to `CC12C=CC(O1)C1C(=O)OC(=O)C12` (centres undefined), the survivor count under setting [8] is 0 of 6.
As to `O=C(O)CO/N=C/c1ccccc1Cl`, the survivor count (dose: 100.0 mg/kg/injection, schedule: Q04DX002 (ip), vehicle: Klucel (hydroxypropylcellulose) (HPC)) was 3 of 3.
In the case of `NN(CC1=COc2ccccc2O1)Cc1ccccc1`, the survivor count under setting [4] is 0 of 6.
Turning to `CCOP(=O)(OCC)OCc1cnc(SC)nc1N`, the survivor count under setting [6] was 0 of 6.
Consider `O=c1ssc(Cl)c1Cl`, for which the survivor count runs as follows: under setting [9], 0 of 6; under setting [10], 0 of 6; under setting [8], 0 of 6.
On to `BrCC(CBr)(CBr)CBr`, for which the survivor count (dose: 400.0 mg/kg/injection, schedule: Q01DX009 (ip), vehicle: saline) is on record as 5 of 6.
In the case of `CCCCCN(CCCCC)CCCNc1c2c(nc3ccc(Cl)cc13)CCCC2`, the survivor count reads like this: under setting [5], 1 of 4; under setting [6], 0 of 4; under setting [7], 0 of 4.
For `O=[N+]([O-])c1ncn[nH]1`, the survivor count under setting [1] is reported as 6 of 6.
For the compound `Nc1ccc(C(=O)Nc2ccc(N(CCCl)CCCl)cc2)cc1`, the T/C by setting is: (dose: 25.0 mg/kg/injection, schedule: Q01DX009 (ip), vehicle: saline) 129 % of control; under setting [11], 127 [5 of 6 alive] and 137 % of control; (dose: 100.0 mg/kg/injection, schedule: Q04DX003 (ip), vehicle: saline) 125 % of control; (dose: 150.0 mg/kg/injection, schedule: Q04DX003 (ip), vehicle: saline) 131 % of control. Moreover, the survivor count is 1 of 6 and 6 of 6 under setting [12]; 2 of 6 (dose: 150.0 mg/kg/injection, schedule: Q01DX009 (ip), vehicle: saline); 0 of 6 (dose: 200.0 mg/kg/injection, schedule: Q01DX009 (ip), vehicle: saline); 1 of 6 under setting [3].
For the compound `C[n+]1ccccc1/C=C/c1ccnc2c(O)cccc12`, for the setting “dose: 300.0 mg/kg/injection, schedule: Q01DX001 (ip), vehicle: carboxymethylcellulose (CMC)”, the survivor count is on record as 2 of 6.
As for `c1cnc2c(c1)ccc1ncccc12`, the survivor count is, setting by setting: (dose: 100.0 mg/kg/injection, schedule: Q01DX009 (ip), vehicle: saline with Tween-80) 1 of 6; under setting [1], 0 of 6; under setting [13], 0 of 6.
Turning to `CCOc1ccn(CC(=O)c2ccc([N+](=O)[O-])o2)c(=O)n1`, the survivor count under setting [1] is reported as 5 of 6, the survivor count under setting [13] is given as 0 of 6 and the survivor count under setting [2] is reported as 1 of 6.
As for `C=CC(=O)NCNC(=O)C=C`, the T/C (dose: 200.0 mg/kg/injection, schedule: Q04DX003 (ip), vehicle: carboxymethylcellulose (CMC)) is 130 % of control. The survivor count (dose: 800.0 mg/kg/injection, schedule: Q01DX001 (ip), vehicle: saline) is recorded as 0 of 6.
For `COC(=O)c1ccccc1-c1ccccc1C(=O)O`, the T/C (dose: 100.0 mg/kg/injection, schedule: Q01DX001 (ip), vehicle: other) is 126 % of control.
For `CCN(CC)C(=S)[S][Sb]([c]1ccccc1)[c]1ccccc1`, the survivor count is reported as 1 of 6 (dose: 200.0 mg/kg/injection, schedule: Q01DX001 (ip), vehicle: steroid suspending solution) and 0 of 6 (dose: 400.0 mg/kg/injection, schedule: Q01DX001 (ip), vehicle: steroid suspending solution).
As for `CCN(CC)CCOCC(=O)Nc1c(C)cccc1Cl`, the survivor count (dose: 400.0 mg/kg/injection, schedule: Q04DX003 (ip), vehicle: saline sonified) is on record as 0 of 6.
As for `CCCCCC#CCO`, the survivor count under setting [2] is 2 of 6.
For `Cc1cccnc1Sc1ccc(C(C)(C)C)cc1`, the T/C reads like this: (dose: 100.0 mg/kg/injection, schedule: Q04DX002 (ip), vehicle: other) 97, 98, 102, 104 % of control; (dose: 200.0 mg/kg/injection, schedule: Q04DX002 (ip), vehicle: other) 94, 95, 104, 112 % of control; (dose: 400.0 mg/kg/injection, schedule: Q04DX002 (ip), vehicle: other) 86, 88, 90, 163 % of control [2 of 3 alive]. The survivor count (dose: 800.0 mg/kg/injection, schedule: Q04DX002 (ip), vehicle: other) is 2 of 3 and 6 of 6.
Take `CN1CCCCC1CCC1c2ccccc2CCc2ccccc21` (centres undefined): the survivor count is, setting by setting: under setting [11], 3 of 6; under setting [12], 0 of 6.
Regarding `NNC(=O)c1ccccc1Cl`, the survivor count runs as follows: under setting [9], 0 of 6; under setting [10], 0 of 6; under setting [8], 0 of 6.
Take `CCCCCC(=O)NC1CCCCC1`: the survivor count (dose: 300.0 mg/kg/injection, schedule: Q01DX001 (ip), vehicle: saline) is given as 2 of 6.
